Measured values as given in patent US20140322717.

Columns and labels:
Test in all cases: enzyme reaction in vitro
TspRI = details: site lost; mutant product still detectable with 1000-fold excess wild type; purified recombinant protein; protein details: New England Biolabs; variant of B-raf synthetic wild type template
BseLI = details: purified recombinant protein, protein details: Fermentas
BseJI = details: purified recombinant protein, protein details: Fermentas
[1] = wild type degraded from 100:1 mixture, 85 C denaturation

## AGACATACTTATTGACTCTAAGAGGAAAGATGAAGTACTATGTTTTAAAGAATATTATATTACAGAATTATAGAAATTAGATCTCTTACCTAAACTCTTCATAATGCTTGCTCTGATAGGAAAATGAGCTCTACTGTTTTCCTTTACTTACTACACCTCAGATATATTTCTTCATGAAGACCTCACAGTAAAAATAGGTGATTTTGGTCTAGCTACAGAGAAATCTCGATGGAGTGGGTCCCATCAGTTTGAACAGCTGTCTGGATCCATTTTGTGGATGGTAAGAATTGAGGCTATTTTTCCACTGATTAAATTTTTGGCCCTGAGATGCTGCTGAGTTACTAGAAAGTCATTGAAGGTCTCAACTATAGTATTTTCATAGTTCCCAGT (double strand) [B-raf synthetic mutant template]
TspRI
  activity on this sequence: not active

## TTGACTCTATGATGAAAGATGTTGTTCCACGATATATTTCTCTGATATGCCCATATTATAAGAGTGCAAATAATGGGCTCCATTCCTTTATTAGCGGTTGTATAGTTTCATAGAGACCAATAGTAAGATATCTGAACTTATGTCCACATGTAATAGGGCTATACGAACAAATAGTCCATACACAAGATATAATGACGAGGAGAAGCACCACCAGACATATCGGAATATGCCGGATTAATGTTCATTACGCCTTACACAATGTCAAGTTTATAATCATAGGTCTGCATACATTTTGTGGATCGTAAT (double strand) [universal mutant template]
BseLI; mutant product detected equally with wild type, variant of universal wild type template
  activity on this sequence: not active
BseJI; only mutant product detected, variant of universal wild type template
  activity on this sequence: not active

## TTGACTCTATGATGAAAGATGTTGTTCCAGGATATAATTCACTGATATGGCCATATTTAAACAGTCCAAATAATGGGCTGCATTGCTTTATTAGCGGATGTATAGATTCATAGTGACCTATAGTAAATGCATTGTACTTATGTGCACATGAAATAGCGCTATTCGAACAAATACTCCATACTCAAGATATAATGAGGAGCTGAACCACGACGAGACATAACGGAATATGCCGCATTAATGATCATTACGCGTTAGACAATGTCAAGATTATAATCATACGTCTGCATACATTTTGTGGATCGTAAT (double strand) [universal wild type template]
BseLI; [1]
  activity on this sequence: active
BseJI; [1]
  activity on this sequence: active

Construct, isoform or probe ends are uncertain for at least one entry. No signal at the amounts used counts as a negative.
